{"sequences": {"note": "The chains behind the UniProt entries cited, without tags or fusion partners.", "UniProt Q8NER1, whole entry, looked up": "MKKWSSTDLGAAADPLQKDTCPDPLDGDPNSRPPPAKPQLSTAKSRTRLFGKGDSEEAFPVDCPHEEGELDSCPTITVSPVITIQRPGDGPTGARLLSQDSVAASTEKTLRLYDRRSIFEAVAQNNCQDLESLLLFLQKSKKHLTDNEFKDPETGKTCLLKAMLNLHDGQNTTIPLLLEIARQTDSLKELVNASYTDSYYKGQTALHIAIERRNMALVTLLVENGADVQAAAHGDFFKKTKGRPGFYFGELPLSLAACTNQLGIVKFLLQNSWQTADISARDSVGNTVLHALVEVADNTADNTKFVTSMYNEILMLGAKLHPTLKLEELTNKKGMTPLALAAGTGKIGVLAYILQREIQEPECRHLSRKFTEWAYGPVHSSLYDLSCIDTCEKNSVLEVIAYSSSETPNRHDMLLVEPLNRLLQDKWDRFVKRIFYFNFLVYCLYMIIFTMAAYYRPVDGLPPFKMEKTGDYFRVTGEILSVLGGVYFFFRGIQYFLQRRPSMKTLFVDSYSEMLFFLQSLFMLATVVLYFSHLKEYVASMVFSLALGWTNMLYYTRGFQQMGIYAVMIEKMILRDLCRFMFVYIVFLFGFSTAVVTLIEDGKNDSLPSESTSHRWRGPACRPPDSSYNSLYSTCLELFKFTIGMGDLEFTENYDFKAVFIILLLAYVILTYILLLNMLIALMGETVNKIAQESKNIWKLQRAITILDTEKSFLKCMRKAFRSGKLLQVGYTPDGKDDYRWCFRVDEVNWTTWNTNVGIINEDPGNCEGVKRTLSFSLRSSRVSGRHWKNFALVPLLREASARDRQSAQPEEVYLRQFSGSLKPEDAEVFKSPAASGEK"}, "source": "PubChem BioAssay AID540275", "about": "(National Center for Advancing Translational Sciences (NCATS), 2011)", "note": "“And” between values parts separate entries of the source, which are not always exact repeats. Identical values can stand only once. The whole screen tested about 320,000 compounds, of which about 620 (0.19%) were called active. The inconclusive results got no clear call from the source; some entries with a clear call stand among them for comparison. No stated cut-off is given here; in the data, active means activation above about 80%; inconclusive means between about 30% and that limit; inactive means weaker than that."}
{"target": "Transient receptor potential cation channel subfamily V member 1 (Homo sapiens) (UniProt Q8NER1)", "assay": "HTS Assay for Compounds that Act as Agonists of the Vanilloid Receptor 1; further: 0% is about no effect", "details": "TRPV1-expressing cells, Fluo-8 calcium influx, agonist mode; at 8.33 µM, active compounds read high", "outline": "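Fluo-8 calcium influx in TRPV1-expressing cells, kinetic read (ex 480/em 520 nm). Compound added and read 3 min for agonist activity, followed by capsaicin at EC20 final and 2 min further read for enhancement.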"}
{"smiles": "CN1C(=O)/C(=C/c2cn(CC(=O)NCc3ccco3)c3ccccc23)NC1=S", "activation": "inactive: 3.59%"}
{"smiles": "Cc1ccc(CNC(=O)N2CCN(c3ccc(C)cc3)CC2)cc1", "activation": "inconclusive: 55.3%"}
{"smiles": "COc1ccc(NC2CCCN(C(=O)CCc3cccc(F)c3)C2)cc1", "note": "(stereo unspecified)", "activation": "inconclusive: 69.5%"}
{"smiles": "COc1ccc(N2CCN(C(=O)Cc3ccc(Br)cc3)CC2)cc1", "activation": "inconclusive: 58.1%"}
{"smiles": "Cc1ccc(CSC2=CS(=O)(=O)c3ccccc3N2)cc1", "activation": "inconclusive: 64.9%"}
{"smiles": "CCCCCCCC/C=C\\CCCCCCCC(=O)NCCc1ccc(O)c(O)c1", "activation": "inconclusive: 34.1%"}
{"smiles": "CC(NC(=O)c1ccccc1NC(=O)c1ccccc1)C(=O)N1CCOCC1", "note": "(stereo unspecified)", "activation": "active: 80.2%"}
{"smiles": "CC(C)C(=O)NCCc1nc2ccccc2n1CCCOc1ccc(Cl)cc1", "activation": "inconclusive: 33.9%"}
{"smiles": "CC1CCc2nn(CC(=O)NC3CCCC(C)C3C)cc2C1", "note": "(stereo unspecified)", "activation": "inconclusive: 30.6%"}
{"smiles": "CCOc1ccc2oc(C(=O)NNC(=O)c3ccccc3O)c(C)c2c1", "activation": "inconclusive: 36.1%"}
{"smiles": "O=C(NCC1CCOCC1)c1cc(COc2cccc(C(F)(F)F)c2)on1", "activation": "inconclusive: 62.1%"}
{"smiles": "Cc1c(C(=O)Nc2ccncc2)sc2nc(-c3ccccc3)cn12", "activation": "active: 90.4%"}
{"smiles": "Cc1ccc(N2CCN(S(=O)(=O)c3ccc4oc(=O)ccc4c3)CC2)c(C)c1", "activation": "inconclusive: 37.2%"}
{"smiles": "COC(=O)c1sc(C(F)(F)F)c(-c2ccccc2)c1S(=O)(=O)N1CCCC1", "activation": "inconclusive: 48.8%"}
{"smiles": "CCC(CC)COC(=O)C1=C(C)NC(=O)NC1c1cccc([N+](=O)[O-])c1", "note": "(stereo unspecified)", "activation": "inconclusive: 37.2%"}
{"smiles": "CCCn1c(C)cc(C(=O)COc2ccc(-c3nnco3)cc2)c1C", "activation": "inconclusive: 45.9%"}
{"smiles": "O=C(/C=C/c1ccc(Cl)cc1Cl)NCc1ccco1", "activation": "inconclusive: 30.7%"}
{"smiles": "COc1ccc(C)cc1NC(=O)CN1C(=O)COc2ccc(S(=O)(=O)N3CCCCC3)cc21", "activation": "inconclusive: 39.8%"}
{"smiles": "COc1ccc(NC2=NC3(CCCCC3)N=C(N)N2)cc1", "activation": "inactive: 3.93%"}
{"smiles": "O=C1c2ccccc2C(Nc2ccc3c(c2)OCCO3)N1Cc1ccc2c(c1)OCO2", "note": "(stereo unspecified)", "activation": "inconclusive: 75.6%"}
{"smiles": "Cc1noc(C)c1CSc1nnc(-c2c[nH]c3ccccc23)n1-c1ccc(Cl)cc1", "activation": "inconclusive: 31.5%"}
{"smiles": "CCCCn1c(=O)c(CCC(=O)OCC(=O)NCc2ccc(OC)c(OC)c2)nc2ccccc21", "activation": "inconclusive: 31.9%"}
{"smiles": "Cc1nn(C)c(C)c1CN(C)C(=O)C1c2ccccc2Oc2ccccc21", "activation": "inactive: 10.1%"}
{"smiles": "Cc1ccc(/C=C/C(=O)Nc2ccccc2C(N)=O)cc1", "activation": "inconclusive: 67.8%"}
{"smiles": "COc1ccc2[nH]c3c(N4CCN(Cc5ccc6c(c5)OCO6)CC4)ncnc3c2c1", "activation": "inconclusive: 36%"}
{"smiles": "CC(=O)c1cccc(OCC(O)CNCCc2ccc(Cl)cc2)c1", "note": "(stereo unspecified)", "activation": "inactive: 8.81%"}
{"smiles": "C/C(Cn1nnc([N+](=O)[O-])n1)=N\\NC(=O)c1ccc(O)cc1O", "activation": "inconclusive: 73.3%"}
{"smiles": "CCCC(=O)c1cc(F)c(N2CCN(C(=O)OCC)CC2)cc1C", "activation": "inconclusive: 54.2%"}
{"smiles": "O=C(Nc1cccnc1)c1ccc2snnc2c1", "activation": "inconclusive: 35.9%"}
{"smiles": "O=C(COc1cccc(NC(=O)c2cccs2)c1)c1ccc(F)cc1", "activation": "inconclusive: 42.6%"}
{"smiles": "CCc1ccc(S(=O)(=O)Nc2ccc(-c3nc4cccnc4s3)cc2)s1", "activation": "inactive: -4.77%"}
{"smiles": "O=C(NCCSc1ccc(Br)cc1)c1ccccc1", "activation": "inconclusive: 68.7%"}
{"smiles": "CN(CC(=O)NCCC1=CCCCC1)S(=O)(=O)c1ccc2c(c1)CCC(=O)N2", "activation": "inconclusive: 39.4%"}
{"smiles": "O=C(Nc1ccc(O)cc1)c1ccc2c(c1)C(=O)N(Cc1ccco1)C2=O", "activation": "inconclusive: 46.3%"}
{"smiles": "Cc1ccc(C(=O)Nc2cccc(S(=O)(=O)N(C)c3ccccc3)c2)o1", "activation": "inconclusive: 40.9%"}
{"smiles": "Cc1csc(NC(=O)c2sc3nc(-c4cccs4)ccc3c2N)n1", "activation": "inactive: 14.4%"}
{"smiles": "CC(C)(C)NC(=O)Cc1ccc(Cl)c(Cl)c1", "activation": "inconclusive: 35.3%"}
{"smiles": "CC(C)(C)C1CCc2sc(-c3nnc(CCl)o3)cc2C1", "note": "(stereo unspecified)", "activation": "inconclusive: 40.6%"}
{"smiles": "CC(=O)c1ccc(NC(=O)Nc2cccc(Cl)c2)cc1", "activation": "inconclusive: 46.3%"}
{"smiles": "COC(=O)CC(NC(=O)c1cccs1)c1ccc(OC)c(OC)c1", "note": "(stereo unspecified)", "activation": "inactive: 3.81%"}
{"smiles": "COc1ccc(OC)c(NC(=O)CN(Cc2ccc(F)cc2)C2CCCCC2)c1", "activation": "inconclusive: 35.6%"}
{"smiles": "COCCOc1ccc(C(F)(F)F)cc1NC(=O)c1ccccc1F", "activation": "inconclusive: 33.5%"}
{"smiles": "Cc1ccc(C(=O)NCCNc2nc3cc(C)c(C)cc3cc2C)cc1", "activation": "inactive: 20.1%"}
{"smiles": "CCOc1ccc(-c2nn(-c3ccccc3)cc2/C=C2\\SC(N)=NC2=O)cc1C", "activation": "inconclusive: 44.6%"}
{"smiles": "COc1cccc(C2C3CN(C)CC=C3C(C#N)=C(N)C2(C#N)C#N)c1OC", "note": "(stereo unspecified)", "activation": "inactive: 2.98%"}
{"smiles": "Cc1ccc(OCC(=O)Nc2ccncc2)c(C)c1", "activation": "inconclusive: 37.1%"}
{"smiles": "COc1ccc(C(C)NC(=O)CC23CC4CC(CC(C4)C2)C3)cc1", "note": "(stereo unspecified)", "activation": "inconclusive: 50.1%"}
{"smiles": "Cc1cccc(-c2cc(C(=O)N3CCCc4ccccc43)c3ccccc3n2)c1", "activation": "inactive: 7.3%"}
{"smiles": "Clc1ccccc1Nc1nnc(-c2ccncc2)s1", "activation": "inconclusive: 61.4%"}
{"smiles": "CCC1(CC)Cc2ccccc2C(CC(=O)N2CCOCC2)=N1", "activation": "inconclusive: 66.5%"}
{"smiles": "Cc1coc2c1C(=O)C(=O)c1c-2ccc2c(C)cccc12", "activation": "inactive: 1.88%"}
{"smiles": "CCOC(=O)c1cnc(SCc2cccc3ccccc23)nc1N", "activation": "inactive: -2.93%"}
{"smiles": "O=C(COc1ccccc1)NCCSCc1ccc(Cl)cc1", "activation": "inconclusive: 35.5%"}
{"smiles": "Cc1ccc(C(C)C)c(OCC(O)CN2CCc3ccccc3C2)c1", "note": "(stereo unspecified)", "activation": "inactive: 14.2%"}
{"smiles": "Nc1nc(CN2CCN(c3ccccn3)CC2)nc(Nc2ccc(Cl)cc2)n1", "activation": "inactive: 8.24%"}
{"smiles": "OC(CNCCC(c1ccccc1)c1ccccc1)COc1ccccc1", "note": "(stereo unspecified)", "activation": "inactive: 13%"}
{"smiles": "COCCn1nnnc1CN1CCSCC1", "activation": "inactive: -1.22%"}
{"smiles": "O=C(NCc1ccccc1)Nc1cccn(Cc2ccccc2Cl)c1=O", "activation": "inconclusive: 56.2%"}
{"smiles": "CCCOc1ccc(-c2nc(C#N)c(N3CCN(C)CC3)o2)cc1", "activation": "inactive: 27.5%"}
{"smiles": "Cc1cc(OCC(=O)NCc2ccccn2)cc(C)c1Br", "activation": "inconclusive: 51.9%"}
{"smiles": "C/C(=N\\NC(=O)CN(c1ccc(Oc2ccccc2)cc1)S(C)(=O)=O)C(C)(C)C", "activation": "inactive: 2.34%"}
{"smiles": "O=C(Nc1ccccc1)N1CCCN(c2ccc(C(F)(F)F)cc2[N+](=O)[O-])CC1", "activation": "inconclusive: 78.3%"}
{"smiles": "CCC1(CC)Cc2ccccc2-c2nc(CN(C)C)[nH]c(=O)c21", "activation": "inconclusive: 44.6%"}
{"smiles": "Cc1ccc(-c2csc(N3CCC[C@@H]3C(=O)NCCn3c(-c4ccncc4)nc4ccccc43)n2)cc1", "activation": "inconclusive: 63.9%"}
{"smiles": "NC(=O)c1ccc(NC(=O)COC(=O)C2(c3ccccc3F)CCCC2)cc1", "activation": "inconclusive: 48%"}
{"smiles": "CSCCOC(=O)c1[nH]c2c(c1C)C(=O)CC(c1ccco1)C2", "note": "(stereo unspecified)", "activation": "inconclusive: 36.4%"}
{"smiles": "COC(=O)c1ccc(N2CCN(C)CC2)c(NC(=O)COc2cccc(C)c2)c1", "activation": "inconclusive: 39.1%"}
{"smiles": "[O-][n+]1c(/C=C/c2ccccc2)ccc2ccccc21", "activation": "inconclusive: 38%"}
{"smiles": "Cc1ccc(-c2nnc(-c3ccccc3)o2)cc1", "activation": "inactive: 2.69%"}
{"smiles": "COc1cc(SC)ccc1C(=O)Nc1cc(C)c(OCC(=O)N2CCOCC2)c(C)c1", "activation": "inactive: -0.0588%"}
{"smiles": "COC(=O)N/N=C/c1c(C)nn(-c2cccc(Cl)c2)c1Cl", "activation": "inconclusive: 42.2%"}
{"smiles": "C=CCn1c(=O)c(C(=O)OCC)c(O)c2ccccc21", "activation": "inactive: 0.996%"}
{"smiles": "COc1cccc(-c2nc(NC3CCCC3)c3ccccc3n2)c1O", "activation": "inactive: 14.6%"}
{"smiles": "Cc1ccn2c(NC(C)(C)C)c(-c3cccs3)nc2c1", "activation": "inconclusive: 47.5%"}
{"smiles": "Cc1cc[n+](C2=C([O-])c3ccccc3C(=O)/C2=N\\S(=O)(=O)c2cccs2)cc1C", "activation": "inactive: -3.43%"}
{"smiles": "O=C(CSc1nc2ccccc2o1)c1ccccc1", "activation": "inconclusive: 46.7%"}
{"smiles": "O=C1CCc2cc(OCCCCc3nnnn3C3CCCCC3)ccc2N1", "activation": "inconclusive: 30.8% and inconclusive: 53.9%"}
{"smiles": "O=C(C1CCCO1)N1N=C(c2ccc(Br)cc2)CC1c1ccco1", "note": "(stereo unspecified)", "activation": "inactive: -3.72%"}
{"smiles": "O=c1[nH]c2ccc(S(=O)(=O)NCc3ccccn3)cc2s1", "activation": "inconclusive: 30.2%"}
{"smiles": "Cc1ccc(N/C=C/C(=O)c2cccs2)cc1", "activation": "inconclusive: 44.1%"}
{"smiles": "O=C(Nc1ccc(C(=O)N2CCOCC2)cc1)c1cccc(Br)c1", "activation": "inconclusive: 49.5%"}
{"smiles": "CN(CC(=O)Nc1ccccc1Br)C(=O)c1ccccc1-c1nc2ccccc2s1", "activation": "inconclusive: 40.5%"}
{"smiles": "CCOCCCNC(=O)c1cc(Sc2ccc(C)cc2)nc2ccccc12", "activation": "inconclusive: 33.2%"}
{"smiles": "O=C(Nc1ccc(Cl)cn1)c1ccc2c(c1)OCCO2", "activation": "inconclusive: 70.7%"}
{"smiles": "O=C(C1=C[C@@H](c2ccc(C(F)(F)F)cc2)C[C@@H](OCCCCO)O1)N1CCN(Cc2ccccc2)CC1", "activation": "inconclusive: 37.9%"}
{"smiles": "Cc1ccc(CN2C(=O)CSC(C)C2=O)cc1", "note": "(stereo unspecified)", "activation": "inconclusive: 31.9%"}
{"smiles": "O=C(Nc1ccccc1Cl)N1CCN(Cc2ccc3c(c2)OCO3)CC1", "activation": "inconclusive: 45.7%"}
{"smiles": "CC/C(C)=N/Nc1ccc(S(=O)(=O)N2CCCC2)cc1[N+](=O)[O-]", "activation": "inactive: 16.3%"}
{"smiles": "COc1ccc(Cl)cc1C(=O)Nc1cccc(-c2ccc3nncn3n2)c1", "activation": "inactive: -4.22%"}
{"smiles": "O=C(c1cc2sccc2n1Cc1ccc(F)cc1)N1CCN(c2nc3ccccc3s2)CC1", "activation": "inactive: 3.14%"}
{"smiles": "COc1ccc(C(=O)Nc2cnn(Cc3c(F)cccc3Cl)c2)cc1OC", "activation": "inconclusive: 31.8%"}
